Step yield data for three substances are collected here from EP4596536A1 (Shanghai de Novo Pharmatech Co., Ltd., priority 2022, dated 2024).

A short description of the data set: general procedure: peptide synthesis; 2-chlorotrityl chloride resin (L-55, L-59 only); HATU/DIPEA; EDCI/HOBT. Particulars: late stage modification step.
Regarding “(S)-2-amino-8-(1-((6-(5-benzyl-43-(4-(2,5-dioxo-2,5-dihydro-1H-pyrrol-1-yl)phenyl)-4,7,10,13,35,42-hexaoxo-16,19,22,25,28,31-hexaoxa-3,6,9,12,34,41-hexaazattritetracontanacyl)-5,6,7,8-tetrahydro-1,6-naphthyridin-3-yl)carbamoyl)cyclopropyl)-N-(2-hydroxyethyl)-N-propyl-3H-ben”, the step yield came to 21%.

The substance “4-((25,85,115)-2-(4-aminobuty1)-18-(2,5-dioxo-2,5-dihydro-1H-pyrrol-1-yl)-8-(hydroxymethyl)-11-isobutyl-4,7,10,13-tetraoxa-3,6,9,12-tetraazaoctadecanoylatnino)benzyl 3-(1-(2-amino-4-((2-hydroxyethyl)(propyl)carbamoyl)-3H-benzo[b]azepin-8-yl)cyclopropane-1-formylamino)-7,8-d” yielded a step yield of 5%.

In turn, “2,5-dioxopyrrolidin-1-yl(S)-1-(3-(1-(2-amino-4-((2-hydroxyethyl)(propyl)carbamoyl)-3H-benzo[b]azepin-8-yl)cyclopropane-1-formylamino)-7,8-dihydro-1,6-naphthyridin-6(5H)-yl)-5-benzyl-1,4,7,10,13-pentaoxo-3,6,9,12-tetraazahexadecan-16-oate” showed a step yield of 14%.
